Among all 340,000 compounds or so, about 4,500 (1.3%) were called active. Inconclusive means that the source gave no clear call. Such entries were picked first, then a sample of the others. Calls follow the shape of the dose curve; as a rule, active = well fitted inhibition curve with a large enough effect; inconclusive = small, poorly fitted or top-dose-only effect, or another doubt; inactive = no such curve, though single readings can be large or run the other way. Where the call is inconclusive, the potency comes from a doubtful curve fit.
target: DNA polymerase beta (Homo sapiens) (UniProt P06746); experiment: qHTS Assay for Inhibitors of DNA Polymerase Beta; conditions: Pol beta primer extension/strand displacement, fluorescence kinetic; activity change, negative = inhibition: at 114 µM (top of the series)
Method in brief: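 Pol beta (10 nM) and compounds were preincubated 15 min at room temperature, then 50 nM substrate (final) started primer extension/strand displacement. Reads were taken at 0 and 10 min; concentration-response data were fitted to a four-parameter Hill equation.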
% is scaled to controls: 0 for no effect and ±100 for the full control effect; potency is read from the fitted curve at half-maximal effect.

Activity change, negative = inhibition, inconclusive:
CC1CCC(NC(=O)c2nn(C)c3c2CSc2ccccc2-3)CC1 (configuration not stated) -38.5% [inhibitor]
CC(=O)Nc1cc(NC(C)=O)cc(-c2nc3ccccc3[nH]2)c1 -30.7% [inhibitor]
COc1ccc(/C=C2\SC(=O)N(CCc3nnc(N)s3)C2=O)cc1 -70.2% [inhibitor]

Potency, active:
O=C(Nc1ccc2c(c1)OCO2)C1Cc2ccccc2CN1S(=O)(=O)c1cccs1 (configuration not stated) 15.8 µM
O=C(CSc1ccccc1Cl)NC1CCCc2ccccc21 (configuration not stated) 12.6 µM
COc1cc(/C=N/NC(=O)COc2ccc([N+](=O)[O-])cc2)ccc1OCC(=O)N1CCOCC1 17.8 µM
Cc1cccc(NC(=O)Cc2cccs2)n1 39.8 µM
O=C(COc1ccccc1F)Nc1ccc(-c2nc3ccccc3s2)cc1 44.7 µM
COc1ccc(-n2nnnc2SCC(=O)c2ccc(O)c(O)c2)cc1 20 µM
O=C(CSc1ccccc1)Nc1nnc(COc2ccc(Cl)cc2)s1 20 µM
CCc1ccc(/C=C/C(=O)c2cc(Br)ccc(=O)c2O)cc1 15.8 µM
CC(C)CC(NC(=O)c1ccccc1)C(=O)N/N=C/c1ccco1 (configuration not stated) 89.1 µM
O=C(CCCCCn1c(SCc2ccncc2)nc2ccccc2c1=O)NCc1ccco1 39.8 µM
COc1ccc(O)c(/C=N/NC(=O)c2c(C)nnn2-c2nonc2N)c1 4.47 µM
CC1=NN(c2nc(-c3ccc(Cl)cc3)cs2)C(=O)C1 35.5 µM

Potency, inconclusive:
O=S(=O)(c1ccc(-n2cnnn2)cc1)N(C1CCCCC1)C1CCCCC1 89.1 µM [inhibitor, single point]
N/C(Cc1ccc([N+](=O)[O-])cc1)=N\OC(=O)c1ccco1 79.4 µM [inhibitor, single point]
CCOC(=O)c1cc(-c2ccccc2)n(CC(=O)N(C)c2ccc(OC)cc2)c1C 79.4 µM [inhibitor, single point]
CCn1c(SCC(=O)Nc2ccc(Br)cn2)nnc1C1CC1 0.501 µM [inhibitor, full curve, poor fit]
CC(=O)Nc1cccc(NC(=O)CSc2ccc(C(F)(F)F)cc2[N+](=O)[O-])c1 70.8 µM [inhibitor, single point]
Cc1ccc(OCC(=O)N2CCN(C(=O)c3ccco3)CC2)cc1 89.1 µM [inhibitor, single point]
CC(=O)Nc1cc(NC(C)=O)cc(-c2nc3ccccc3[nH]2)c1 63.1 µM [inhibitor, single point]
CSc1nc(SCC(=O)NCc2ccco2)c2c3c(sc2n1)COC(C)(C)C3 14.1 µM [inhibitor, full curve, poor fit]
CCOc1cc(CNc2ccc(O)cc2)ccc1OCc1ccc(Cl)cc1 89.1 µM [inhibitor, single point]
CCCCOC(=O)c1c(C)oc2ccc(NS(=O)(=O)c3ccc4c5c(cccc35)C(=O)N4)cc12 22.4 µM [inhibitor, full curve]
COc1ccc(CNC(=O)C2CC(c3ccccc3C(F)(F)F)=NO2)cc1 (configuration not stated) 100 µM [inhibitor, single point]
N#CCC(=O)N/N=C\c1ccc(OC/C=C/c2ccccc2)cc1 14.1 µM [inhibitor, partial curve]
CCCn1c(N)c(C(=O)CSc2nc3ccccc3s2)c(=O)[nH]c1=O 0.1 µM [inhibitor, full curve, poor fit]
Cc1ccc(C(=O)NCc2ccco2)cc1S(=O)(=O)N1CCCC1 56.2 µM [inhibitor, single point]
Cc1ccc2c(c1)N(CC(=O)NC1CCCC(C)C1C)C(=O)c1cccnc1O2 (configuration not stated) 89.1 µM [inhibitor, single point]
Cc1nc(N2CCN(S(=O)(=O)c3cccc4nonc34)CC2)c2c3c(sc2n1)CCCC3 89.1 µM [inhibitor, single point]
COc1nnc(-c2ccc(N3CCOCC3)c(NC(=O)c3ccc(C)cc3)c2)c2ccccc12 0.891 µM [inhibitor, full curve, poor fit]
Cc1ccc(NS(=O)(=O)c2ccc(C)c(NC(=O)COc3ccc4ccccc4c3)c2)c(C)c1 25.1 µM [inhibitor, partial curve, poor fit]
COc1cccc(NC(=O)CSC2=NN3CCCC(=O)N=C3S2)c1 50.1 µM [inhibitor, partial curve]
O=C(O)CN1C(=O)/C(=C\c2cccc(OCc3ccc(Cl)cc3)c2)SC1=S 79.4 µM [inhibitor, partial curve, poor fit]
Cc1ccc(-n2nc3c(c2NC(=O)/C=C\c2ccc4c(c2)OCO4)CSC3)cc1 25.1 µM [inhibitor, full curve]
NC(=S)N/N=C/c1cccc(/C=N/NC(N)=S)c1 31.6 µM [inhibitor, partial curve, poor fit]
CCC1Sc2ccc(S(=O)(=O)CCC(=O)Nc3ccc(C(=O)OC)cc3)cc2NC1=O (configuration not stated) 89.1 µM [inhibitor, single point]
O=C(O)c1cccc(NS(=O)(=O)c2ccc(-c3ccc(S(=O)(=O)Nc4cccc(C(=O)O)c4)cc3)cc2)c1 44.7 µM [inhibitor, partial curve]
Cc1ccc(S(=O)(=O)N2CCOCC2)cc1NC(=O)CSc1nc(N)cc(=O)[nH]1 4.47 µM [inhibitor, single point]
Oc1ccccc1C(=S)N1CCN(c2cccc(Cl)c2)CC1 89.1 µM [inhibitor, single point]
COc1ccccc1OCC(=O)Nc1ccc(CSc2ccccc2)cc1C 0.112 µM [inhibitor, full curve, poor fit]
O=S(=O)(c1ccccc1)c1nc(-c2ccc(Cl)cc2Cl)oc1N1CCCCCC1 89.1 µM [inhibitor, single point]
NS(=O)(=O)c1ccc(CCNC(=O)CNC(=O)c2ccc(Oc3ccccc3)cc2)cc1 56.2 µM [inhibitor, single point]
COc1cc(SC)ccc1C(=O)Nc1nccs1 2 µM [inhibitor, full curve]
CC(Oc1ccc2c(c1)oc(=O)c1ccccc12)C(=O)NC(Cc1c[nH]c2ccc(O)cc12)C(=O)O (configuration not stated) 50.1 µM [inhibitor, partial curve]
N/C(=N\S(=O)(=O)c1cc(C(F)(F)F)cc(C(F)(F)F)c1)c1ccc(Cl)cc1 70.8 µM [inhibitor, single point]
CC(=O)Oc1ccc(/C=N\NC(=O)c2cc3c(ccc4ccccc43)o2)cc1 3.55 µM [inhibitor, full curve]
COc1ccc(-c2nnc(SCC(=O)Nc3ccc(Cl)cc3)s2)cc1 3.55 µM [inhibitor, full curve]
COc1ccc2cc3cc(C(=O)NCc4ccc5c(c4)OCO5)oc3nc2c1 12.6 µM [inhibitor, single point]
N#Cc1c(OCC(=O)c2ccccc2)nc2c(c1-c1ccco1)CCc1ccccc1-2 31.6 µM [inhibitor, full curve, poor fit]
CSc1cccc(NC(=O)COc2ccccc2C)c1 39.8 µM [inhibitor, single point]
O=c1c(OC2OC(CO)C(O)C(O)C2OC2OC(CO)C(O)C(O)C2OC2OC(CO)C(O)C(O)C2O)c(-c2ccc(O)c(O)c2)oc2cc(O)cc(O)c12 (configuration not stated) 28.2 µM [inhibitor, full curve]

Potency, inactive:
COc1cc(-c2nc(Cn3nnc(C(=O)Nc4cc(C)cc(C)c4)c3C)c(C)o2)cc(OC)c1OC
COc1cccc(-c2nc(CSCC(=O)NCCc3ccc(Cl)cc3)c(C)o2)c1
Nc1ccc(CCn2ccnc2)cc1
CCCCSc1ncnc2c1c(-c1ccccc1)cn2-c1cccc(F)c1
COc1ccc(C(CNC(=O)COc2ccc(Cl)c(C)c2)N2CCOCC2)cc1 (configuration not stated)
Cc1cc(=O)n(Cc2cccc(Cl)c2)c2c1c(C)nn2-c1ccccc1
Cc1cc(C)cc(NC2=CC(c3cccc(F)c3)N(c3cc(C)cc(C)c3)C2=O)c1 (configuration not stated)
CCOCCCNC(=O)C1CCC(CNS(=O)(=O)c2ccc(NC(C)=O)cc2)CC1 (configuration not stated)
CS(=O)(=O)N(CC(=O)N1CCN(c2ccccc2)CC1)Cc1ccc(Cl)cc1
O=C(CN1C(=O)CCc2cc(S(=O)(=O)N3CCOCC3)ccc21)NCc1ccc(F)cc1
Cn1ccc2cc(S(=O)(=O)N3CCC(C(=O)NCCc4ccccc4)CC3)ccc21
Cc1ccc(C)n1-c1nnc(N2CCCC(C(=O)Nc3ccc(C(C)C)cc3)C2)s1 (configuration not stated)
Cc1ccc(NC(=O)N(Cc2cn(C)c3ccccc23)C2CCCCC2)cc1C
COc1ccc(C(C#N)c2ccc(=O)[nH]n2)cc1 (configuration not stated)
CCOC(=O)C1CCN(c2ncnc3c2nnn3C)CC1
CCOCCCNC(=O)/C(C#N)=C/c1ccc(C)o1
COCCC(=O)NC1CCCc2c1cnn2-c1cccc(C)c1C (configuration not stated)
CCN(CC)c1cc2c(cc1F)c(=O)c(S(=O)(=O)c1cc(C)ccc1C)cn2Cc1ccccc1
Cc1ccoc1C(=O)NCc1occc1C(=O)O

3 entries from above, arranged by length of the SMILES, descending.
Potency, inactive:
CS(=O)(=O)N(CC(=O)N1CCN(c2ccccc2)CC1)Cc1ccc(Cl)cc1
COc1cccc(-c2nc(CSCC(=O)NCCc3ccc(Cl)cc3)c(C)o2)c1
CCOC(=O)C1CCN(c2ncnc3c2nnn3C)CC1

For convenience, three of the compounds above.
Potency, inactive:
O=C(CN1C(=O)CCc2cc(S(=O)(=O)N3CCOCC3)ccc21)NCc1ccc(F)cc1
Cn1ccc2cc(S(=O)(=O)N3CCC(C(=O)NCCc4ccccc4)CC3)ccc21
Cc1ccc(C)n1-c1nnc(N2CCCC(C(=O)Nc3ccc(C(C)C)cc3)C2)s1 (configuration not stated)

From PubChem BioAssay AID485314 (National Center for Advancing Translational Sciences (NCATS), 2010)
